# Data taken from PubChem BioAssay AID2551 (National Center for Advancing Translational Sciences (NCATS), 2010).
# Amino acid sequences for entries named in this document (tags omitted). A change or cut given only in a name is not applied to a line headed by its entry.
# UniProt P51450: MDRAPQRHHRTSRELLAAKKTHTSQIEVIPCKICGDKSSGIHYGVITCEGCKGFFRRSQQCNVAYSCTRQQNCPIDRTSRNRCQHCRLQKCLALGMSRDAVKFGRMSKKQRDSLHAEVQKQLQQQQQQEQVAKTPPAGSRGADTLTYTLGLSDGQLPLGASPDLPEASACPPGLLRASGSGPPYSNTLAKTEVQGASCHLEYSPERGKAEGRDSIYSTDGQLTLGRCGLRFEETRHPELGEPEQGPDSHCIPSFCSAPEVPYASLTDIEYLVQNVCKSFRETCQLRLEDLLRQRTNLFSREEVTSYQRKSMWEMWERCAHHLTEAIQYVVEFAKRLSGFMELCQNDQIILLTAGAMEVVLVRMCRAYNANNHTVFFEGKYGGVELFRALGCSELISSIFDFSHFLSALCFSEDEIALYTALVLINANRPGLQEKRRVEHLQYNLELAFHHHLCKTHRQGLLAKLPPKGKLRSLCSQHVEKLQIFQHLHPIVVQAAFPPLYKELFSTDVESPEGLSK
# Among all 310,000 compounds or so, about 17,000 (5.5%) were called active. The shares of active, inactive and inconclusive entries below differ from those in the screen. Calls follow the shape of the dose curve; as a rule, active = well fitted inhibition curve with a large enough effect; inconclusive = small, poorly fitted or top-dose-only effect, or effect the other way; inactive = no such curve, though single readings can be large or run the other way. Where the call is inconclusive, the potency comes from a doubtful curve fit.
# Target: Nuclear receptor ROR-gamma (Mus musculus) (UniProt P51450)
# Assay: qHTS for inhibitors of ROR gamma transcriptional activity; also: nearly all actives have a fitted effect of over 60% in size
# Conditions: Drosophila S2 Gal4-RORgamma UAS-luciferase reporter, 20 h; activity change, negative = inhibition: at 53.6 µM (top of the series)
# How it was run: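 In this cell-based reporter format, copper sulfate (700 uM final) drives Gal4–ROR gamma fusion expression from a metallothionein promoter in Drosophila Schneider cells; compounds preincubated 1 hr, reporter read after 20 hr at ambient temperature.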
# % is scaled to controls: 0 for no effect and ±100 for the full control effect; potency is read from the fitted curve at half-maximal effect.
Compound,Potency,"activity change, negative = inhibition"
COc1ccccc1CNc1ncnc2ccc(-c3ccccc3OC)cc12,"inconclusive: 22.4 µM [activator, single point]",–
CCOC(=O)C1CCN(C(=O)COc2ccc(Cl)cc2Cl)CC1,"inconclusive: 10 µM [inhibitor, partial curve]",–
O=C(NCSC1=NCCS1)c1ccccc1,"inconclusive: 35.5 µM [inhibitor, single point]",–
CC(=O)c1cccc(NC(=O)Nc2ccc3c(c2)CCC3)c1,active: 7.08 µM,–
COc1cc(C(=O)OCC(=O)Nc2ccc(OC(F)F)cc2)cc(OC)c1OC,"inconclusive: 12.6 µM [activator, single point]",–
COc1ccccc1OCCOc1ccc(/C=C2\C(=N)N3N=C(S(C)(=O)=O)SC3=NC2=O)cc1,"inconclusive: 20 µM [activator, single point]",–
COc1ccc(-n2c(SCC(=O)NCc3ccco3)nnc2-c2c[nH]c3ccccc23)cc1,"inconclusive: 12.6 µM [activator, single point]",–
COc1cccc(/C=C2\SC(=S)N(CCC(=O)NNC(=O)c3ccccc3OC)C2=O)c1,"inconclusive: 11.2 µM [inhibitor, single point]",–
Cc1cc(=O)n2[nH]c(C)c(-c3ccc(Cl)cc3)c2n1,active: 7.08 µM,–
O=C(c1cc(C(F)(F)F)cc(C(F)(F)F)c1)N1CCC2(CCCN(c3ncccn3)C2)CC1,"inconclusive: 14.1 µM [activator, partial curve]",–
COc1ccc(C(=O)C2CCN(C(=O)c3ccc(C)cc3)CC2)cc1,"inconclusive: 35.5 µM [activator, single point]",–
CC(C)n1ncc(N2CCOCC2)c(Cl)c1=O,–,inactive: 12.5%
COc1ccc(-c2nnc(SCC(=O)NC(=O)NCc3ccco3)o2)cc1,active: 7.94 µM,–
CCOc1ccc(/C=N/NC(=O)C(OC)c2ccccc2)cc1 (stereo not drawn),–,inactive: 25.2%
CC(c1ccccc1)N1C(=O)c2ccc(C(=O)NCc3ccco3)cc2C1=O (stereo not drawn),–,inactive: 11%
COc1cccc(/C=N/n2c(COc3ccccc3)n[nH]c2=S)c1,active: 7.08 µM,–
O=C(C1CCCN(Cc2nc(-c3cccs3)no2)C1)N1CCOCC1 (stereo not drawn),–,inactive: -2.4%
CS(=O)(=O)Nc1cccc(-c2cnc3ccccc3n2)c1,–,inactive: 2.49%
O=S(=O)(c1ccccc1)N1CCC2(CCN(c3ccccc3)CC2)CC1,"inconclusive: 35.5 µM [activator, single point]",–
CCOC(=O)C(C)Sc1nnc2n1C(C)(C)Cc1ccccc1-2 (stereo not drawn),"inconclusive: 35.5 µM [activator, single point]",–
NC(=S)N/N=C1\CC(n2nnnc2-c2ccccc2)C2COC1O2 (stereo not drawn),"inconclusive: 17.8 µM [inhibitor, single point]",–
Cc1ccc(C(=O)NC(=S)NNC(=O)c2ccc([N+](=O)[O-])cc2)cc1,"inconclusive: 15.8 µM [inhibitor, single point]",–
CSc1ccccc1NC(=O)c1ccccc1N(Cc1ccccc1)S(C)(=O)=O,–,inactive: 27.4%
CCCCCC(=O)N/N=C/c1cc(Br)c(O)c(OC)c1,"inconclusive: 15.8 µM [activator, partial curve]",–

Compound,Potency,"activity change, negative = inhibition"
CC(=C/c1ccccc1)/C=N/NC(=O)CSc1nc(C)cc(C)n1,"inconclusive: 10 µM [activator, partial curve]",–
Cc1ccc(-c2nnc3ccc(SCC(=O)N4CCCc5ccccc54)nn23)cc1,–,inactive: -19.9%
Oc1c(Cl)cc(CN2CCCCC2)c2cccnc12,active: 4.47 µM,–
C/C(CC(=O)Nc1ccccc1C)=N\NC(=O)Cc1csc(N)n1,"inconclusive: 0.447 µM [activator, full curve]",–
COc1cccc2c(=O)n(CC(=O)Nc3ccccc3F)ccc12,"inconclusive: 6.31 µM [inhibitor, single point]",–
CC(C)C(NC(=O)c1ccc(C(C)(C)C)cc1)C(=O)NC1=NCCS1 (stereo not drawn),"inconclusive: 35.5 µM [inhibitor, single point]",–
CCN(CC)CCCn1c(=S)[nH]c2cc(OC)c(OC)cc2c1=O,–,inactive: 4.78%
CC(C)(C)c1ccc(-n2ncc3c2CCCC3NC(=O)CCN2CCCCC2=O)cc1 (stereo not drawn),"inconclusive: 6.31 µM [activator, single point]",–
C/C(=N/NC(=O)c1cc2ccccc2cc1O)c1ccco1,"inconclusive: 22.4 µM [inhibitor, single point]",–
Cc1csc(NC(=O)Cn2nc(C)c([N+](=O)[O-])c2C)n1,–,inactive: 0.353%
Cc1cc(C)nc(SCC(=O)c2ccc([N+](=O)[O-])cc2)n1,"inconclusive: 14.1 µM [activator, single point]",–
C=CCn1c(SCC(=O)N(CCO)CCO)nc2sc3c(c2c1=O)CCC3,"inconclusive: 12.6 µM [activator, single point]",–
CCn1c(C)nc2cc(C(=O)N3N=C(CCOC)CC3(O)C(F)(F)F)ccc21 (stereo not drawn),"inconclusive: 35.5 µM [inhibitor, partial curve, poor fit]",–
COc1ccc(-c2nnc(NC(=O)CS(=O)(=O)c3ccc(Cl)cc3)o2)c(OC)c1,active: 17.8 µM,–
c1ccc(-n2nnc3c(N4CCOCC4)ncnc32)cc1,active: 8.91 µM,–
C/C(CCc1ccc2c(c1)OCO2)=N\N=C1\NC(=O)CC(C(=O)Nc2ccccc2F)S1 (stereo not drawn),active: 11.2 µM,–
Cc1nnc(C)n1/N=C/c1cccn1C,–,inactive: 20.3%
COCCn1c(C)cc(C(=O)CN2C(=O)NC3(CCCCCCC3)C2=O)c1C,"inconclusive: 7.08 µM [activator, single point]",–
Cc1ccc(O)c(C2=NNC(c3ccc(Cl)cc3)C2)c1 (stereo not drawn),active: 7.94 µM,–
CSc1sc(C(=O)NN)c2c1C1(CCC2)SCCS1,"inconclusive: 14.1 µM [inhibitor, single point]",–
COc1ncccc1-c1nnn(-c2ccc(C)cc2)n1,–,inactive: -2.59%
COc1c(Cl)cc(Cl)cc1/C=C/C(=O)c1ccc(NC(=O)c2cccs2)cc1,"inconclusive: 35.5 µM [inhibitor, single point]",–
O=C(Nc1ccc2c(c1)OCCO2)c1ccc(Br)s1,–,inactive: -32.4%
O=C(NC(c1ccccc1)c1ccccc1)c1cccc(S(=O)(=O)NCc2ccccc2)c1,"inconclusive: 15.8 µM [activator, single point]",–

# An excerpt from above in order of SMILES length, rising:
Compound,Potency,"activity change, negative = inhibition"
Cc1nnc(C)n1/N=C/c1cccn1C,–,inactive: 20.3%
CS(=O)(=O)Nc1cccc(-c2cnc3ccccc3n2)c1,–,inactive: 2.49%
CC(=O)c1cccc(NC(=O)Nc2ccc3c(c2)CCC3)c1,active: 7.08 µM,–
O=C(C1CCCN(Cc2nc(-c3cccs3)no2)C1)N1CCOCC1 (stereo not drawn),–,inactive: -2.4%
